Data set [1] addresses p53 (UniProt P04637). The data set can be described thus: competition with a labelled probe. The note with it: excess unlabeled vs biotin RE2; EMSA: 10 mM Tris pH 7.5, 100 mM NaCl, 1 mM EDTA, 1 mM DTT, 5% glycerol, poly(dI-dC), 20 min room temperature; protein in an extract; residues 1-393.
Data set [2] addresses p53 (UniProt P04637). Kind of data set: EMSA. The note with it: 38HK nuclear extract; EMSA: 10 mM Tris pH 7.5, 100 mM NaCl, 1 mM EDTA, 1 mM DTT, 5% glycerol, poly(dI-dC), 20 min room temperature; protein in an extract; residues 1-393; label: biotin.

The exact form of at least one protein or probe is not confirmed. Where cells or extracts were used, other partners may take part.

Turning to “CCTCGTGTTACCTGTTCTGTGCTAC (double strand) [ITGA1 p53RE2 WT unlabeled]”, in the data set with p53 [1], the binding result is “binds”.

With “CCTCGTGTTACCTGTTCTGTGCTAC (double strand) [ITGA1 p53RE2 WT]”, the binding result with p53 [2] was “binds”.

The values above are taken from publication PMC7458291.
